Data taken from publication PMC4467423.
These are yes or no findings as the source states them, for the method shown. In cells and extracts the contact can be indirect. Some binding calls cover weakened binding; strength is not graded here. For part of these data: Where a sequence is shown, tags or fusion partners need not be part of it.

Protein sequences, listed by entry. Tags and fused reporters are not part of them.
UniProt O15392: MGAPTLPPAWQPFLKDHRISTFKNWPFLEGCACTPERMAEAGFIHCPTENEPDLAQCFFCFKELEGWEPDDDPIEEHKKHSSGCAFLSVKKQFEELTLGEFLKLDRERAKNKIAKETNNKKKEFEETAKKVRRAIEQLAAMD

B1: HSET/KifC1 (protein, UniProt Q9BW19 1-673)
chain: MDPQRSPLLEVKGNIELKRPLIKAPSQLPLSGSRLKRRPDQMEDGLEPEKKRTRGLGATTKITTSHPRVPSLTTVPQTQGQTTAQKVSKKTGPRCSTAIATGLKNQKPVPAVPVQKSGTSGVPPMAGGKKPSKRPAWDLKGQLCDLNAELKRCRERTQTLDQENQQLQDQLRDAQQQVKALGTERTTLEGHLAKVQAQAEQGQQELKNLRACVLELEERLSTQEGLVQELQKKQVELQEERRGLMSQLEEKERRLQTSEAALSSSQAEVASLRQETVAQAALLTEREERLHGLEMERRRLHNQLQELKGNIRVFCRVRPVLPGEPTPPPGLLLFPSGPGGPSDPPTRLSLSRSDERRGTLSGAPAPPTRHDFSFDRVFPPGSGQDEVFEEIAMLVQSALDGYPVCIFAYGQTGSGKTFTMEGGPGGDPQLEGLIPRALRHLFSVAQELSGQGWTYSFVASYVEIYNETVRDLLATGTRKGQGGECEIRRAGPGSEELTVTNARYVPVSCEKEVDALLHLARQNRAVARTAQNERSSRSHSVFQLQISGEHSSRGLQCGAPLSLVDLAGSERLDPGLALGPGERERLRETQAINSSLSTLGLVIMALSNKESHVPYRNSKLTYLLQNSLGGSAKMLMFVNISPLEENVSESLNSLRFASKVNQCVIGTAQANRK

How the values were obtained:
[1] = biological target: T1, HSET/KifC1 (human (endogenous in MDA-MB-231)) (UniProt Q9BW19); assay: co-IP; anti-HSET antibody (4 ul) on whole cell lysates (500 ug protein) of MDA-MB-231 cells transiently transfected with control vector, HSET-pEGFP plasmid or HSET siRNA; overnight 4°C, protein A-agarose beads; blot for survivin; beads-only control
T1 sequence: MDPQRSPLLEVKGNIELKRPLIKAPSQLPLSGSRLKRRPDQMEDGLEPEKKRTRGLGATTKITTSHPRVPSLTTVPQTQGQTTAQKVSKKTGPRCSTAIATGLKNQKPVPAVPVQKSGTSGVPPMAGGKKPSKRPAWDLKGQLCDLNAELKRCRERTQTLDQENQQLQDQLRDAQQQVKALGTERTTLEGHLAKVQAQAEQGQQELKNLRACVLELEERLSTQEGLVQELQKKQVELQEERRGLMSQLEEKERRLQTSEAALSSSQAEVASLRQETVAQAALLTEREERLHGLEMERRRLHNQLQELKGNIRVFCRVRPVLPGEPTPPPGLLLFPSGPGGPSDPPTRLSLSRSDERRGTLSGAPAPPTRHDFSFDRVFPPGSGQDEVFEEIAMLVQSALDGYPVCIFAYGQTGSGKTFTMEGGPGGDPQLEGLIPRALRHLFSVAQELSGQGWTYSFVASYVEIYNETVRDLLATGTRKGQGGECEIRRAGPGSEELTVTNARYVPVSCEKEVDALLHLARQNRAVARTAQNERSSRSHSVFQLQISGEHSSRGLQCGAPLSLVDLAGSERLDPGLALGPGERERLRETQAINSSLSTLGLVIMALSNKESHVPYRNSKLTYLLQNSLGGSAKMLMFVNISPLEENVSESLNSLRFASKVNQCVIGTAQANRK

HSET-GFP (human) = biological target: T2, HSET-GFP (human) (UniProt Q9BW19); assay: as above
T2 sequence: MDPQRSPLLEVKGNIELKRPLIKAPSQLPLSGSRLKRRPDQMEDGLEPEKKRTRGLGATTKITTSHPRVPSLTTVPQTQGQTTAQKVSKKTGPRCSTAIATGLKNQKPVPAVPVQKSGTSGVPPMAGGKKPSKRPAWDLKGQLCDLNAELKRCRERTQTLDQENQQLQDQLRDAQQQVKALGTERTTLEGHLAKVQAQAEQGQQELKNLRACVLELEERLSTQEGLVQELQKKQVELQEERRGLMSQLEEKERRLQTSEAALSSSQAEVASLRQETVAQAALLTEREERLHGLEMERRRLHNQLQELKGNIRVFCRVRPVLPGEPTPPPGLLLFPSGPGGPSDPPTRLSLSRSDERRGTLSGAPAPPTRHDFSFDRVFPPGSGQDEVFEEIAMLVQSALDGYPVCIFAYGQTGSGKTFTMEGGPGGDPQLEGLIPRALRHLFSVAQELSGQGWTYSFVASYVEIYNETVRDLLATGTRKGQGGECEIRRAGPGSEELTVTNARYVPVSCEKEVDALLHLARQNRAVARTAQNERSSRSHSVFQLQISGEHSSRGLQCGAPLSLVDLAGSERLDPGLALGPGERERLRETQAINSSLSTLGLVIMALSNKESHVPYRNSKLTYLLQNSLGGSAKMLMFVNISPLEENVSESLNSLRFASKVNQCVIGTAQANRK

[2] = biological target: survivin (human (endogenous in MDA-MB-231)) (UniProt O15392); assay: co-IP; anti-survivin antibody (4 ul) on MDA-MB-231 cell lysates (500 ug protein); overnight 4°C, protein A-agarose beads; blot with HSET antibody

| Molecule | binding [1] | binding (HSET-GFP (human)) | binding [2] |
| --- | --- | --- | --- |
| survivin (from UniProt O15392 1-142) | binds | binds |  |
| B1 |  |  | binds |
